Results as given in patent US20220142913A1, “TRANSDERMAL DELIVERY FORMULATIONS” (Albert Einstein College of Medicine, priority 2020, published 2022).
The name of at least one read-out is uncertain.

Assay: Loading potential / solubility of low solubility agents in PEG400/myristic acid vehicles, nitrite saturated PEG400 and water
Type: physicochemical
Details: Sample 3 solution
Protocol: Vehicles for loading the active ingredient were prepared as illustrated in samples 1-4. Myristic acid (solid flakes) was dissolved in PEG400 upon warming the mixture in a warm water bath. Shaking accelerated the formation of the resulting clear solution. The following four concentrations of myristic acid (MA) in PEG400 were prepared and evaluated. Samples 1, 2, 3 and 4 were all clear solutions when the samples were allowed to attain ambient temperatures.
The samples as vehicles were loaded with NO enhancing agent. […] Samples 1 and 2 were initially liquid but formed a solid uniform gel over a period of several hours. Sample 3 was prepared by dissolving 0.75 grams of MA in 30 ml's of PEG400 and heating in a water bath (˜60-80 C) for ˜15 minutes. Sample 4 was prepared by dissolving 2.25 grams of MA in 30 mls of PEG400 and heating in a water bath (˜60-80 C) for ˜15 minutes. Both sample 3 and sample 4 were uniform solutions when the heating cycle was finished. Upon cooling sample 3 remained liquid whereas sample 4 formed a uniform gel. […]
The Sample 3 solvent system was also tested as a vehicle for loading potential with the following low solubility reagents using the above method: quercetin, berberine, N-acetyl cysteine amide (NACA) and N-acetyl cysteine ethyl ester (NAC-ethylester). […]

In the case of COc1ccc2cc3[n+](cc2c1OC)CCc1cc2c(cc1-3)OCO2 [berberine], the “solubilization in Sample 3” value was “high degree of solubilization”.
